Results on 34 compounds are retold here after the supplement of paper PMC12462457.

Structures can show the parent of a compound that is named as a salt. ± gives the standard deviation of the averaged measurements. The list shows a part of the results. Single values are uncertain here, since repeats match poorly.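 Cells were counted by imaging DAPI-stained nuclei, and cells lacking phalloidin-stained cytoplasm were excluded as dead. Each well's count was divided by the median count of the vehicle wells on the same plate, and values were averaged over two replicate plates.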

This test has as its system OVCAR8. In words: cell count relative to DMSO vehicle (fold change); higher = more surviving senescent cells (less killing). The following applies: senescence inducer: cisplatin 10 µM 48 h, then 6 d recovery (CP senescent), exposure time 24 h.

Regarding `CC[C@@]1(O)C(=O)OCc2c1cc1n(c2=O)Cc2cc3c(CN(C)C)c(O)ccc3nc2-1` [Topotecan (Hydrochloride)], the cell count (compound dose 1 µM) was 0.58 ± 0.047 and the cell count (compound dose 5 µM) was found to be 0.601 ± 0.094.

`O=c1[nH]c(=S)[nH]c2nc(-c3ccccc3)c(-c3ccccc3)nc12` [SCR7 pyrazine]: the cell count was 0.951 ± 0.022 (compound dose 1 µM) and 0.672 ± 0.037 (compound dose 5 µM).

With `COc1cc2ncnc(Nc3ccc(O)c(Br)c3)c2cc1OC`, the cell count runs as follows: (compound dose 1 µM) 1.04 ± 0.16; (compound dose 5 µM) 0.581 ± 0.2.

Turning to `C[C@@H]1O[C@@H](O[C@H]2C(=O)c3c(O)cc(O)cc3O[C@@H]2c2ccc(O)c(O)c2)[C@H](O)[C@H](O)[C@H]1O` [Astilbin], the cell count is, setting by setting: (compound dose 1 µM) 0.789 ± 0.087; (compound dose 5 µM) 0.756 ± 0.12.

In the case of `Cc1ccc(NC(=S)NNc2c([N+](=O)[O-])cc(C(F)(F)F)cc2[N+](=O)[O-])cc1Cl`, the cell count runs as follows: (compound dose 1 µM) 0.986 ± 0.0042; (compound dose 5 µM) 0.912 ± 0.27.

With `COc1c(O)cc(O)c2c(=O)cc(-c3ccccc3)oc12` [Wogonin], the cell count reads like this: (compound dose 1 µM) 1.07 ± 0.14; (compound dose 5 µM) 0.767 ± 0.37.

`COc1ccc(-c2oc3c(CC=C(C)C)c(O)cc(O)c3c(=O)c2O)cc1` [Icaritin]: the cell count is, setting by setting: (compound dose 1 µM) 1.06 ± 0.093; (compound dose 5 µM) 1.14 ± 0.17.

Regarding `CCOc1nc2cccc(C(=O)OC(C)OC(=O)OC3CCCCC3)c2n1Cc1ccc(-c2ccccc2-c2nn[nH]n2)cc1` (stereo not drawn) [Candesartan Cilexetil], the cell count (compound dose 1 µM) came to 0.663 ± 0.16 and the cell count (compound dose 5 µM) is 0.0715 ± 0.067.

On to `CCCNS(=O)(=O)Nc1ncnc(OCCOc2ncc(Br)cn2)c1-c1ccc(Br)cc1` [Macitentan], for which the cell count amounted to 0.974 ± 0.029 (compound dose 1 µM) and 0.606 ± 0.2 (compound dose 5 µM).

`COC(=O)c1c2c(c3ccccc3c1O)OC(C)(C)C=C2` [Mollugin] showed a cell count (compound dose 1 µM) of 0.952 ± 0.2 and a cell count (compound dose 5 µM) of 0.196 ± 0.12.

With `CC1(C)CCN(CCOc2ccc3[nH]ccc3c2)c2ccc(-c3cccnc3)cc21`, the cell count is 1.033 ± 0.0085 (compound dose 1 µM) and 0.745 ± 0.2 (compound dose 5 µM).

As for `COc1ccc(/C=C/C(=O)C2(C(=O)/C=C/c3ccc(OC)c(OC)c3)CCCCC2)cc1OC`, the cell count by setting is: (compound dose 1 µM) 1.09 ± 0.24; (compound dose 5 µM) 1.07 ± 0.071.

As for `Nc1nc(Nc2ccc(S(N)(=O)=O)cc2)nn1C(=O)c1c(F)cccc1F`, the cell count runs as follows: (compound dose 1 µM) 1.11 ± 0.74; (compound dose 5 µM) 1.25 ± 0.21.

Turning to `Cc1[nH]c(/C=C2\C(=O)Nc3ccc(S(=O)(=O)Cc4c(Cl)cccc4Cl)cc32)c(C)c1C(=O)N1CCC[C@@H]1CN1CCCC1`, the cell count came out at 0.836 ± 0.066 (compound dose 1 µM) and 0.335 ± 0.011 (compound dose 5 µM).

As for `CC(C)[C@H](NC(=O)c1ccc2ccccc2n1)C(=O)N[C@@H](CC(=O)O)C(=O)COc1c(F)cccc1F`, the cell count by setting is: (compound dose 1 µM) 0.748 ± 0.14; (compound dose 5 µM) 0.858 ± 0.18.

Regarding `O=C(O)c1cc(O)c(O)c(O)c1`, the cell count was 0.729 ± 0.29 (compound dose 1 µM) and 0.887 ± 0.39 (compound dose 5 µM).

As to `COc1cc(C(=O)O)cc(O)c1O` [3-O-Methylgallic acid], the cell count is 1.02 ± 0.015 (compound dose 1 µM) and 0.779 ± 0.11 (compound dose 5 µM).

On to `Cc1c(C)c2c(c(C)c1O)CC[C@@](C)(CCC[C@H](C)CCC[C@H](C)CCCC(C)C)O2` [α-Vitamin E], for which the cell count is, setting by setting: (compound dose 1 µM) 0.931 ± 0.059; (compound dose 5 µM) 1.03 ± 0.084.

Consider `Cc1cc(CS(=O)(=O)c2ccccc2)cc(OCc2ccc(CN3CCC[C@@H]3CO)cc2)c1`, for which the cell count reads like this: (compound dose 1 µM) 0.884 ± 0.0092; (compound dose 5 µM) 1.16 ± 0.07.

As for `Cc1cc(CS(=O)(=O)c2ccccc2)cc(OCc2ccc(CN3CCC[C@@H]3CO)cc2)c1` [PF-543 (Citrate)], the cell count runs as follows: (compound dose 1 µM) 1.14 ± 0.23; (compound dose 5 µM) 0.859 ± 0.026.

Turning to `NC(=O)NO`, the cell count by setting is: (compound dose 1 µM) 1.2 ± 0.13; (compound dose 5 µM) 0.991 ± 0.066.

`C[C@@H]1CC[C@@]2(OC1)O[C@H]1C[C@H]3[C@@H]4CC=C5C[C@@H](O[C@@H]6O[C@H](CO)[C@@H](O)[C@H](O[C@@H]7O[C@H](CO)[C@@H](O)[C@H](O)[C@H]7O)[C@H]6O[C@@H]6O[C@@H](C)[C@H](O)[C@@H](O)[C@H]6O)CC[C@]5(C)[C@H]4CC[C@]3(C)[C@H]1[C@@H]2C` [Gracillin]: the cell count turned out to be 1.33 ± 0.16 (compound dose 1 µM) and 1.02 ± 0.16 (compound dose 5 µM).

Regarding `CC(C)(C)c1cc(NC(=O)Nc2ccc(-c3cccc4c(N)nccc34)cc2)no1`, the cell count by setting is: (compound dose 1 µM) 0.823 ± 0.076; (compound dose 5 µM) 0.635 ± 0.17.

With `COc1c(OC)c2occc2c2oc(=O)ccc12`, the cell count was 1.13 ± 0.12 (compound dose 1 µM) and 0.964 ± 0.091 (compound dose 5 µM).

On to `Cc1ccccc1C(=O)N1CCc2cc(-c3nc(NC(=O)Cc4ccc5c(c4)OCO5)sc3C)ccc21`, for which the cell count came out at 1.08 ± 0.12 (compound dose 1 µM) and 0.979 ± 0.15 (compound dose 5 µM).

As for `CCCCC[C@H](CC(=O)NO)C(=O)N[C@H](C(=O)N1CCC[C@H]1CO)C(C)C` [Actinonin], the cell count (compound dose 1 µM) was determined as 1.43 ± 0.092 and the cell count (compound dose 5 µM) turned out to be 1.17 ± 0.17.

On to `Oc1ccc(C2=Cc3ccc(O)cc3OC2)cc1` [Phenoxodiol], for which the cell count is, setting by setting: (compound dose 1 µM) 1.14 ± 0.092; (compound dose 5 µM) 0.924 ± 0.31.

On to `COc1ccc(COc2cc3oc(=O)c4cc(C(C)O)ccc4c3cc2OC)cc1` (stereo not drawn) [Palomid 529 (P529)], for which the cell count (compound dose 1 µM) came to 0.883 ± 0.12 and the cell count (compound dose 5 µM) was determined as 0.902 ± 0.22.

On to `CC(C)(C)NC(=O)[C@@H]1CN(Cc2cccnc2)CCN1C[C@@H](O)C[C@@H](Cc1ccccc1)C(=O)N[C@H]1c2ccccc2C[C@H]1O` [Indinavir (sulfate)], for which the cell count is 0.747 ± 0.096 (compound dose 1 µM) and 0.969 ± 0.052 (compound dose 5 µM).

For `COC(=O)Nc1nc2cc(C(=O)c3ccc(F)cc3)ccc2[nH]1` [Flubendazole], the cell count (compound dose 1 µM) stood at 1.08 ± 0.15 and the cell count (compound dose 5 µM) was determined as 0.797 ± 0.076.

As for `CC[C@@H]1C(=O)N(C)c2cnc(Nc3ccc(C(=O)NC4CCN(C)CC4)cc3OC)nc2N1C1CCCC1`, the cell count was 0.682 ± 0.3 (compound dose 1 µM) and 0.68 ± 0.15 (compound dose 5 µM).

Consider `CCCCC[C@H](O)CC(=O)CCc1ccc(O)c(OC)c1` [[6]-Gingerol], for which the cell count (compound dose 1 µM) amounted to 1.3 ± 0.055 and the cell count (compound dose 5 µM) was determined as 1.04 ± 0.084.

On to `CCCCCCCC/C=C\CCCCCCCC(=O)O` [Oleic acid], for which the cell count is 1.05 ± 0.057 (compound dose 1 µM) and 0.94 ± 0.057 (compound dose 5 µM).

For the compound `Fc1ccc(CNc2ncnc3ccc(F)cc23)cc1` [Spautin-1], the cell count turned out to be 1.06 ± 0.081 (compound dose 1 µM) and 0.835 ± 0.18 (compound dose 5 µM).
